The results in this text go back to paper PMC5295395, “Inhibition of PlexA1-mediated brain tumor growth and tumor-associated angiogenesis using a transmembrane domain targeting peptide” (Oncotarget, 2016).

Amino acid sequences for entries named in this document (tags omitted). Residues count along the entry.
UniProt Q9UIW2, residues 27-1896: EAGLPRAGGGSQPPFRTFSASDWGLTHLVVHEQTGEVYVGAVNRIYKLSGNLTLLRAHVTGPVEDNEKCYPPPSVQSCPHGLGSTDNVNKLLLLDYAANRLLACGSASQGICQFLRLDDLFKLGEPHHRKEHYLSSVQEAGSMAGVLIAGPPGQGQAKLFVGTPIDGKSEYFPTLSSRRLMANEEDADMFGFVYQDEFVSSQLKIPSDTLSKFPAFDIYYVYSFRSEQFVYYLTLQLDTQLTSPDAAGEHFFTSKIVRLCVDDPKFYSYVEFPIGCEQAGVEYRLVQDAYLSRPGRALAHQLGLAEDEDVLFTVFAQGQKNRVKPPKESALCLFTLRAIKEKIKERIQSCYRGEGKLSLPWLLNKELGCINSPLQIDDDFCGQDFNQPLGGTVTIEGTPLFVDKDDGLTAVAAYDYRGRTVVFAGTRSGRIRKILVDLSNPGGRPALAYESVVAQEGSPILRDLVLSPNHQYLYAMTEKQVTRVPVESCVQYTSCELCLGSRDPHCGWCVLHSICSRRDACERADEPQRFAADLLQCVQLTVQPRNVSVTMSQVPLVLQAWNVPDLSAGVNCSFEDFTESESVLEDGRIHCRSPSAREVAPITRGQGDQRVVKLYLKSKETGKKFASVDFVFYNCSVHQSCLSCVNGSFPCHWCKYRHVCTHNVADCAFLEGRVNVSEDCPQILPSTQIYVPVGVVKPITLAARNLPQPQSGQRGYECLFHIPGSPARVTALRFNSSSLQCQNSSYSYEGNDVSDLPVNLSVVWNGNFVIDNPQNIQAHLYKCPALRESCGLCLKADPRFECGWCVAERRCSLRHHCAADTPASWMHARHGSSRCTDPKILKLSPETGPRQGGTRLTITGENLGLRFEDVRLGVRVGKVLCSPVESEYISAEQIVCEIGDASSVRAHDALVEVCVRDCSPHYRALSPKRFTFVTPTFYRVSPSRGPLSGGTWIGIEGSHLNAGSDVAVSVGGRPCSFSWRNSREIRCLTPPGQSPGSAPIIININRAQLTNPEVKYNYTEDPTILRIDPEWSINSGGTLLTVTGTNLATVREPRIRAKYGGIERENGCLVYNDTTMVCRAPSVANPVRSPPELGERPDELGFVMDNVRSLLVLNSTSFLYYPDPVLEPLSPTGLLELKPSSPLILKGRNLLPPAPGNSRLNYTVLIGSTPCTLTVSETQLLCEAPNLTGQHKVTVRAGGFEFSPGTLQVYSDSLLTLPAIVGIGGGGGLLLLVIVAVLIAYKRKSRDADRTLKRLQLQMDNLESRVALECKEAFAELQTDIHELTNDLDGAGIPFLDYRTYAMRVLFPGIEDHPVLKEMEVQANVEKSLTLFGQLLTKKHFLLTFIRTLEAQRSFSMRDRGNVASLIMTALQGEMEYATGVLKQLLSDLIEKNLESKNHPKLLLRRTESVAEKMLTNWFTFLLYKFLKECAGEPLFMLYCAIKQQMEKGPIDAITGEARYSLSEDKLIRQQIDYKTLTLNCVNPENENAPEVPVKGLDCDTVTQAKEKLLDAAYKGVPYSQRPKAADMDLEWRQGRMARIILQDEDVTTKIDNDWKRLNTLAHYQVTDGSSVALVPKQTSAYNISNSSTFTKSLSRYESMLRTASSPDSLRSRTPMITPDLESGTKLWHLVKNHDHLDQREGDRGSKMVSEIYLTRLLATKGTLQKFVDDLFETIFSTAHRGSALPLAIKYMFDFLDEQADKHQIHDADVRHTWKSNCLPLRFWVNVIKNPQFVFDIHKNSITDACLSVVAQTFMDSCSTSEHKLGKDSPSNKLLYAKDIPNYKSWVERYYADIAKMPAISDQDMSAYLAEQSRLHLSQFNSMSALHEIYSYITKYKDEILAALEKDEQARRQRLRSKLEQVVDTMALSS
UniProt O14786, residues 22-923: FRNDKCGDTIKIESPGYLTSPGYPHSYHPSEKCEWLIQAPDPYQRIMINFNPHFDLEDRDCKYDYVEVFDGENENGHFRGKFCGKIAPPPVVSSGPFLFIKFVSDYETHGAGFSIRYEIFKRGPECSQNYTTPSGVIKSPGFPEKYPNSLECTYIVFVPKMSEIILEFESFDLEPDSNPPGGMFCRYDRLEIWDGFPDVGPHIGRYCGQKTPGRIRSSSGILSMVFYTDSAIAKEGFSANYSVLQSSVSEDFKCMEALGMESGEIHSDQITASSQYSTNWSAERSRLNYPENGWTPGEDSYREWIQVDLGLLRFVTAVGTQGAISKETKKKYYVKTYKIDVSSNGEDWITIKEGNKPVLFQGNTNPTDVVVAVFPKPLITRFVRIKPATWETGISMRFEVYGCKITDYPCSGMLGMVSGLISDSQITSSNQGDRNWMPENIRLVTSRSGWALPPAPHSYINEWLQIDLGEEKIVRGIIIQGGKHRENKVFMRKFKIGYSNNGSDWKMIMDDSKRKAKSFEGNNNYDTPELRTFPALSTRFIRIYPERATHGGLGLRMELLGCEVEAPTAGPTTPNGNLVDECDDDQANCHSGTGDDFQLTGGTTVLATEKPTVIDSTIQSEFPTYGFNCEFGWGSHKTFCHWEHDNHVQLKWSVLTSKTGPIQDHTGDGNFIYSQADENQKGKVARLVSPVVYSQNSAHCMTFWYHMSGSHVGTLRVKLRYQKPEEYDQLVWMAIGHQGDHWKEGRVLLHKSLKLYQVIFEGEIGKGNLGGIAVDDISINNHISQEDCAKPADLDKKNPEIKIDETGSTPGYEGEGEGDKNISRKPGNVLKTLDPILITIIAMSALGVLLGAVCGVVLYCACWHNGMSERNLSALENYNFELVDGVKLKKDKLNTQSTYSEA
UniProt Q9HCM2, residues 24-1894: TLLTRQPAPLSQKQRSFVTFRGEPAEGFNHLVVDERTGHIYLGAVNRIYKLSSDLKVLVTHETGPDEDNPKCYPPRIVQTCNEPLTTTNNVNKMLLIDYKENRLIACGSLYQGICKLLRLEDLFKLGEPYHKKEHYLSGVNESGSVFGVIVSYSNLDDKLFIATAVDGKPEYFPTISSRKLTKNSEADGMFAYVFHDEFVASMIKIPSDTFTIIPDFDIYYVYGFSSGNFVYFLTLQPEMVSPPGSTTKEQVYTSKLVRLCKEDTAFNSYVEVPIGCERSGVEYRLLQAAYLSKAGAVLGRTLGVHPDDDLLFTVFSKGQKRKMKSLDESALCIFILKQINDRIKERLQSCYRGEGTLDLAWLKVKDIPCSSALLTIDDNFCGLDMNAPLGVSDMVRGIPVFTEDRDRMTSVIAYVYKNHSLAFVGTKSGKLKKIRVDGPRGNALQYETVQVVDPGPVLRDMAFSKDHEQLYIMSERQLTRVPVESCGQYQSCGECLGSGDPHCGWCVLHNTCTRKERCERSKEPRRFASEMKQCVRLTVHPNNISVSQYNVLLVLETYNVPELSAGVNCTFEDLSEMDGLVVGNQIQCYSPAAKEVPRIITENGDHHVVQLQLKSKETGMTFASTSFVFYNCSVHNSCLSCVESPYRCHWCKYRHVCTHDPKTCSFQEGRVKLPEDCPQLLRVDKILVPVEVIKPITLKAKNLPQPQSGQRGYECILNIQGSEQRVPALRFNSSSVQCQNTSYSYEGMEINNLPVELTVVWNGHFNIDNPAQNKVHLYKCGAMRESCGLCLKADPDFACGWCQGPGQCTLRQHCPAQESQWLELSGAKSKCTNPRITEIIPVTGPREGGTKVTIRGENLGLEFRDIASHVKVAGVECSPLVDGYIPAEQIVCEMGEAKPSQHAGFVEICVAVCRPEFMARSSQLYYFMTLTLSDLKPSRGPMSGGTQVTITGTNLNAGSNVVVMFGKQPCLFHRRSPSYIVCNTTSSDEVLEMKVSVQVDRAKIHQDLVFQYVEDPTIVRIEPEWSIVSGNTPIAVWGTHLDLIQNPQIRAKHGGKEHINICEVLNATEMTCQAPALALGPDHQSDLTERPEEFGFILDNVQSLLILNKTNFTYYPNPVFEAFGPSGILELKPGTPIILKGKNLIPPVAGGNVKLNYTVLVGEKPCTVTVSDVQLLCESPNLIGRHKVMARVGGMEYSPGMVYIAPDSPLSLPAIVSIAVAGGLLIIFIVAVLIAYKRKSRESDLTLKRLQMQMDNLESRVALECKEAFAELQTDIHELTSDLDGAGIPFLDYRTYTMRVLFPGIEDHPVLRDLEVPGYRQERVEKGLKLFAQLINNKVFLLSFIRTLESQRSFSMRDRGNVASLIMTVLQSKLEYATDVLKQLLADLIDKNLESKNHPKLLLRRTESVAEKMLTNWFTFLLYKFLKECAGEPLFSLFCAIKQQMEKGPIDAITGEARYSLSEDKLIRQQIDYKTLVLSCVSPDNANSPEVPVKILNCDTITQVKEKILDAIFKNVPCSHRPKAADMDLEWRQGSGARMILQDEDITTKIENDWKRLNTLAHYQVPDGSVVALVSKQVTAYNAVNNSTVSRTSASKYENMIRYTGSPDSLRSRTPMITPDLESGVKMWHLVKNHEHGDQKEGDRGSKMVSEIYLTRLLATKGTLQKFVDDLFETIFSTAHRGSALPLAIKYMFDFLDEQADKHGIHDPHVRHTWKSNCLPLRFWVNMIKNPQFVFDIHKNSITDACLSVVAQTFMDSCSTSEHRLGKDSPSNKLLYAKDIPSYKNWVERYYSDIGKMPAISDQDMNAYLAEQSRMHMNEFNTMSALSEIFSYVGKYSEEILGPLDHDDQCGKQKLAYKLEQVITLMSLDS

These are yes or no findings as the source states them, for the method shown. Binding seen in cells or lysates may run through a third protein. Some entries that bind do so weakly or less than the wild type.

For experiment [1], the target named is Plexin-A1 (human (endogenous in U373MG and U118MG)) (UniProt Q9UIW2). Description: proximity ligation; proximity ligation assay on tumor tissue sections of subcutaneous U118MG-Luc xenografts in mice.
Experiment [2] has the same target. Description: co-IP; immunoprecipitation of PlexA1 from U373MG cells stimulated with Sema3A (100 ng/ml) or VEGF (100 ng/ml); immunoblot for NRP1 and PlexA4.
Experiment [3] shares this target. Description: proximity ligation; in situ proximity ligation assay (Duo-link system, Sigma-Aldrich) on U373MG cells; vehicle treated cells as control condition.

“Neuropilin-1 (from UniProt O14786 22-923) (receptor)”: the binding entry in experiment [1], in experiment [2] and in experiment [3] was “binds” in each case.

For the substance “Plexin-A4 (from UniProt Q9HCM2 24-1894) (receptor)”, the binding result in experiment [2] was “binds”.
